# From the supplement of paper PMC12823440, “Inhibitors supercharge kinase turnover through native proteolytic circuits” (Nature, 2025)
# Sequences of proteins named here, by UniProt entry; tags and fusion partners are left off. A change or cut given only in a name is not applied to a line headed by its entry.
# UniProt P10398: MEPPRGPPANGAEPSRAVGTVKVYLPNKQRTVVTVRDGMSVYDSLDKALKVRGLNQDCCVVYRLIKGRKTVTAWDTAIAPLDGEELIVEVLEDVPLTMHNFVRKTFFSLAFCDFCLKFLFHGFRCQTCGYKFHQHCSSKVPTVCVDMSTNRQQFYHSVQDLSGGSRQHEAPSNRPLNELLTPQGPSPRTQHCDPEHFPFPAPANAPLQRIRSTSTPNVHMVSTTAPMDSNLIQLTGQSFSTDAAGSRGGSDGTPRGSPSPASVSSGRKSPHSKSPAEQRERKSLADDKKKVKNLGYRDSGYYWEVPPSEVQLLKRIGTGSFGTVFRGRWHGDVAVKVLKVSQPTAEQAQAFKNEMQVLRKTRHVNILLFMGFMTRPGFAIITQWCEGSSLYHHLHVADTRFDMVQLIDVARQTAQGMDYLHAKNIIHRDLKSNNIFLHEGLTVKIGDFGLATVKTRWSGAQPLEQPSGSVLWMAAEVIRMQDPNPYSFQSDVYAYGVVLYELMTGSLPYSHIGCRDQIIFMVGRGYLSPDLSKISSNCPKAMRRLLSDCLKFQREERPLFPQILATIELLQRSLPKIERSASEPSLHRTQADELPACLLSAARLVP
# UniProt Q9UQB9: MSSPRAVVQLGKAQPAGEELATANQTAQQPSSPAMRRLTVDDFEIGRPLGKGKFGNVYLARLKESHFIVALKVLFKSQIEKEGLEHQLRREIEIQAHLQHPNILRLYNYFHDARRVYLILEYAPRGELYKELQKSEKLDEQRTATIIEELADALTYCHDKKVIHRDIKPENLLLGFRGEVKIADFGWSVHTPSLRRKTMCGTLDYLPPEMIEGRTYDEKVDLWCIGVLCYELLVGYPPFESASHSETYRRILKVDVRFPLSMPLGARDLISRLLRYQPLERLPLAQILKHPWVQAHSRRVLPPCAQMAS
# UniProt P51813: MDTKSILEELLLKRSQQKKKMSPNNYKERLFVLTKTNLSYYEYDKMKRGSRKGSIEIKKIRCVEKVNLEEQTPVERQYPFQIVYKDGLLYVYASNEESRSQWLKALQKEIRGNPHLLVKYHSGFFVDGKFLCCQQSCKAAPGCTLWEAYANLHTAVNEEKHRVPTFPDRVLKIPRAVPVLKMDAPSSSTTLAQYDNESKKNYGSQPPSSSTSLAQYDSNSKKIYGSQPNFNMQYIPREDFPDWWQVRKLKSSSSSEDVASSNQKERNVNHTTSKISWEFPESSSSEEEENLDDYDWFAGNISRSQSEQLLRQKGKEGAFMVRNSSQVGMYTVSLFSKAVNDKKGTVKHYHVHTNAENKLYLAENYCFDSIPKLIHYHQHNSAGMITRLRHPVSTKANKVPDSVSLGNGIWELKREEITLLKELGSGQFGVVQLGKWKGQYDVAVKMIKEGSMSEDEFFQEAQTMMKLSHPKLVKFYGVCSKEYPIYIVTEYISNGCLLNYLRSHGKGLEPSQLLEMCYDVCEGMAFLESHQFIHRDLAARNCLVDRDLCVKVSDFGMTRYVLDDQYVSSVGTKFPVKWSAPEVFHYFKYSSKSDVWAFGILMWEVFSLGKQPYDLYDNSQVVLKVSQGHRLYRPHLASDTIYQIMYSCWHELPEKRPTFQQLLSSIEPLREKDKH
# UniProt P15056, whole entry, looked up: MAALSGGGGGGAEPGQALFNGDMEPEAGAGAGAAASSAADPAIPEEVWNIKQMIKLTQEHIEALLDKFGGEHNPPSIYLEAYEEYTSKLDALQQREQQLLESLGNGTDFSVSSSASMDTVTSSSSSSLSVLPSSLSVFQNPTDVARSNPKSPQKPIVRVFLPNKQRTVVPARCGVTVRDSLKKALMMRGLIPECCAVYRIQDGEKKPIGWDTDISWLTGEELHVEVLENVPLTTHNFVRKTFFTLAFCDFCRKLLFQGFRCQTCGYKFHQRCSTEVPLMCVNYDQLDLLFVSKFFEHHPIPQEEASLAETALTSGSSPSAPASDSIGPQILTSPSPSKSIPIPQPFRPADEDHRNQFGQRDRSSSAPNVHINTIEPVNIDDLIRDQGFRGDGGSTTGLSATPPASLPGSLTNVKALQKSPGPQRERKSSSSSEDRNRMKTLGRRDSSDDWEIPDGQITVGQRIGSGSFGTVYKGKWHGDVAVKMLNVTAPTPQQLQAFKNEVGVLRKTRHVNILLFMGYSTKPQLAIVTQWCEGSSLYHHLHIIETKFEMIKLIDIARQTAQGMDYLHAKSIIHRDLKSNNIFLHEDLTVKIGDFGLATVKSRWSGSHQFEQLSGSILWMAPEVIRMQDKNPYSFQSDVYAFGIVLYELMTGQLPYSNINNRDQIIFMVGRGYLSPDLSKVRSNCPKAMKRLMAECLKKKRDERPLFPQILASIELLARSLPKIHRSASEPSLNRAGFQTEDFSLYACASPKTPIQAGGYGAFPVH
# UniProt Q06187: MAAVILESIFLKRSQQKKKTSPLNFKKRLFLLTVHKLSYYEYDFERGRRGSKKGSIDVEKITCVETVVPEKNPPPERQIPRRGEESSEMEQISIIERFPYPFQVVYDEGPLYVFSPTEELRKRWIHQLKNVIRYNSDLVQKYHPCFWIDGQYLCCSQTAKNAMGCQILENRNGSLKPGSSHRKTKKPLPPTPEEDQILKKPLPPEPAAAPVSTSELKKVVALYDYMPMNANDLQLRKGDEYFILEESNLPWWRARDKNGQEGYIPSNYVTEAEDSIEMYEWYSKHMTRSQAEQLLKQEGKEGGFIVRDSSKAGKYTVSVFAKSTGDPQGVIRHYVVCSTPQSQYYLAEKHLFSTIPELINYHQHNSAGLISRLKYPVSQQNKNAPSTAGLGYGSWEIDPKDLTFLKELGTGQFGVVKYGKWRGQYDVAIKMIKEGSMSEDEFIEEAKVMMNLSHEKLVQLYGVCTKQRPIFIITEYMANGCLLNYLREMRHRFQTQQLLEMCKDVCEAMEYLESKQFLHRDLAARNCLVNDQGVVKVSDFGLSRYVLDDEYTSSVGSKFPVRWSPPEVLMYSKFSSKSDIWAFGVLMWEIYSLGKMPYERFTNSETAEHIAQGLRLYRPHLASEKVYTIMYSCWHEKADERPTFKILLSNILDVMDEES
# UniProt Q9UQM7, whole entry: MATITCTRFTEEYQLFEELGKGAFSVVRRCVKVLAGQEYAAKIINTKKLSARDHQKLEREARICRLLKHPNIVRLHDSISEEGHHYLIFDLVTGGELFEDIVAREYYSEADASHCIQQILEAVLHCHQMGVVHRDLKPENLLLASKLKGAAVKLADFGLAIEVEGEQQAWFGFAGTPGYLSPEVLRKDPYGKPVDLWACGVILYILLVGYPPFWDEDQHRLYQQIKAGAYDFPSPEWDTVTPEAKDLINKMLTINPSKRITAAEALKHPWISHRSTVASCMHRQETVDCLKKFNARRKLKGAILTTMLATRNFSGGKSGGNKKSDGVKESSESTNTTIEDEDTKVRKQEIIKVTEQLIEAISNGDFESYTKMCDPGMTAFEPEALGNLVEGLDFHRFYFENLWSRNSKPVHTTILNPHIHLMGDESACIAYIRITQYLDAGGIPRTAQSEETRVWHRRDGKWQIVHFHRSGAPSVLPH
# UniProt Q15131: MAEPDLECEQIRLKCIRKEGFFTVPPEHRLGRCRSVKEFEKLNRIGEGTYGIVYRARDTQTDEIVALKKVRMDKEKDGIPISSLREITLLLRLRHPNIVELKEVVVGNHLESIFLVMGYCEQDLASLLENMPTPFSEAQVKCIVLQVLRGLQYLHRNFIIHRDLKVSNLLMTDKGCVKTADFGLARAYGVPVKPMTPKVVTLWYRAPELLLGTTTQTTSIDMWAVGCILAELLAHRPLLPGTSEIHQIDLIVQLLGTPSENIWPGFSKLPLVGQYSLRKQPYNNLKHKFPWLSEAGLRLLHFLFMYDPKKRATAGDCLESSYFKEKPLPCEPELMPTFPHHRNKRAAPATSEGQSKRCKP
# UniProt Q00526: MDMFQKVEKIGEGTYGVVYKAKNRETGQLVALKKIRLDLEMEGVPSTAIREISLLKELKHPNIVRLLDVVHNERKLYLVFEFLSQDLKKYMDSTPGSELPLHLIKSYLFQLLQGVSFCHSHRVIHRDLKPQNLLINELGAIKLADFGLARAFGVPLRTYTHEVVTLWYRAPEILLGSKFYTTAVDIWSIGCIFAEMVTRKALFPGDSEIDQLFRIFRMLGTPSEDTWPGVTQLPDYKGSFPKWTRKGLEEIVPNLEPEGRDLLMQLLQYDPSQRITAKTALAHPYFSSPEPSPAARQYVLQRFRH
# UniProt Q00534, whole entry: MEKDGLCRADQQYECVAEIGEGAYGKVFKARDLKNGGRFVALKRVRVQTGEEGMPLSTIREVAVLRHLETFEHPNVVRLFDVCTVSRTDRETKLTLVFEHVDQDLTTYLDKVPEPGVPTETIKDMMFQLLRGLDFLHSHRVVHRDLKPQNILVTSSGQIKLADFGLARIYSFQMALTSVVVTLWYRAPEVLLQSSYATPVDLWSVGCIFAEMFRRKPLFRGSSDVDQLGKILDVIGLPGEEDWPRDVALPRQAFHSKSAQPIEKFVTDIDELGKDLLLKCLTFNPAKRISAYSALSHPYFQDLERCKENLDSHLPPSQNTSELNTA
# UniProt O96017, whole entry: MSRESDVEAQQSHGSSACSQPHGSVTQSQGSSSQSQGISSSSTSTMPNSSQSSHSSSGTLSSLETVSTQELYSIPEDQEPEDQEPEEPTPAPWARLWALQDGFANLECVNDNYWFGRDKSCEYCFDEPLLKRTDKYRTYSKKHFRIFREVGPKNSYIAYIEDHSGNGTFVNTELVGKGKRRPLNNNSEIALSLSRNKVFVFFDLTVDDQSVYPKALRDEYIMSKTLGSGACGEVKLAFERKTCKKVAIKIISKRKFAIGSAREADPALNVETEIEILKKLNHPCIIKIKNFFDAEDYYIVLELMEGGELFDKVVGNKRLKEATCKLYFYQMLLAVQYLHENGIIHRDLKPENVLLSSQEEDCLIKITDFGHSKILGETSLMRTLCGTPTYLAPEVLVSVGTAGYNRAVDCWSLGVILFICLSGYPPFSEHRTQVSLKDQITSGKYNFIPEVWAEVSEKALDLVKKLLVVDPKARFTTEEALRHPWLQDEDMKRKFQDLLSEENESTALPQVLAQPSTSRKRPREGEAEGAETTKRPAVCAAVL
# UniProt P07333, whole entry: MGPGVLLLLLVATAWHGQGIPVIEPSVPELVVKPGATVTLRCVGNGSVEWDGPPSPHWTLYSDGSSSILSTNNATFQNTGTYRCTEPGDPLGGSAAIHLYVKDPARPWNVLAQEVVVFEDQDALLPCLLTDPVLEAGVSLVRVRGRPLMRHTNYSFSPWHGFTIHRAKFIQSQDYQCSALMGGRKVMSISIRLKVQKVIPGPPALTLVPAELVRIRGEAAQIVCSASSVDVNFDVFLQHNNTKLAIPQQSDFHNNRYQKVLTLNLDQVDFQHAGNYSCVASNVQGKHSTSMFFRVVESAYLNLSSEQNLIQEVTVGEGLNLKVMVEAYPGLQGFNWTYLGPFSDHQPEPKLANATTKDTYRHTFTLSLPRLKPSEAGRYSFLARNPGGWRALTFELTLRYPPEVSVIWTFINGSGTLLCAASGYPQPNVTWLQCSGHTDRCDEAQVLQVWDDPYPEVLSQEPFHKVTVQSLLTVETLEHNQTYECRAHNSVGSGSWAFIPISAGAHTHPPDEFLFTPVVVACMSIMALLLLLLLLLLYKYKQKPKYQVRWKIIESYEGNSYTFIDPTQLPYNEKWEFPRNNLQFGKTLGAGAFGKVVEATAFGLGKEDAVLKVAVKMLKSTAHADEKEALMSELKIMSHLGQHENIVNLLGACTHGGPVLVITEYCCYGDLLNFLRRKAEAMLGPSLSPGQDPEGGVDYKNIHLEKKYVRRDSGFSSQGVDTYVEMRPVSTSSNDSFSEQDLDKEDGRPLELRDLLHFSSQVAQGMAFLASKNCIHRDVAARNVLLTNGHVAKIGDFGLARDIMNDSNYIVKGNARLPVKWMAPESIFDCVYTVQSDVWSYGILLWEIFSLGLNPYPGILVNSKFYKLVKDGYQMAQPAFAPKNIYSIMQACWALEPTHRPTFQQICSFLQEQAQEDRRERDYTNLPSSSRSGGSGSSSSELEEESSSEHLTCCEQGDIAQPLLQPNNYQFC
# UniProt P41240: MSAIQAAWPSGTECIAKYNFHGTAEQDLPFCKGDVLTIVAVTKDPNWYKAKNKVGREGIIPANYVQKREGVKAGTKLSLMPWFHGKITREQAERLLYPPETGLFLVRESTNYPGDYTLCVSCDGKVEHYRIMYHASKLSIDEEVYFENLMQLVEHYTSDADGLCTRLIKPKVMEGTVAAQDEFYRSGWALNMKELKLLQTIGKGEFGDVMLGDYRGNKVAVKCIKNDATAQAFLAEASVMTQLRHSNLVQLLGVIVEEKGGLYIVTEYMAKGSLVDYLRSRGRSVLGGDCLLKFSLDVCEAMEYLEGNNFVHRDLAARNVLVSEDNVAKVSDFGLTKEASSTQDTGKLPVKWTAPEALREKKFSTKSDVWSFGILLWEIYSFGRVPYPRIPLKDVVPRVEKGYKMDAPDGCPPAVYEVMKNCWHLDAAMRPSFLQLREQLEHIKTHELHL
# Counter-ions that a name gives are not always drawn. The list shows a part of the results. The calls rarely recur for the same compound in another form.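 Kinases, fused to nanoluciferase, were expressed in K562 cells; luminescence was measured every 4 h from 2 to 18 h as percent of control (DMSO = 100%, positive control = 0%). A time point is decreased if signal falls significantly (2 sigma). Hits were called by the authors by a rule that is not shown; the count of time points alone does not decide it.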
# Key:
# Assay in all cases: number of time points (of 5) at which kinase-Nluc abundance scored as decreased, DMSO-normalised (count); higher = more persistent destabilization
# Settings in all cases: K562; 2-18 h
# ALK = ALK (UniProt Q9UM73)
# ARAF = ARAF (UniProt P10398)
# AURKA = AURKA (UniProt O14965)
# AURKB = AURKB (UniProt Q96GD4)
# AURKC = AURKC (UniProt Q9UQB9)
# BLK = BLK (UniProt P51451)
# BMX = BMX (UniProt P51813)
# BRAF = BRAF (UniProt P15056)
# BRAF_V600E = system: BRAF_V600E
# BTK = BTK (UniProt Q06187)
# CAMK2A = CAMK2A (UniProt Q9UQM7)
# CAMK2G = CAMK2G (UniProt Q13555)
# CDK10 = CDK10 (UniProt Q15131)
# CDK2 = CDK2 (UniProt P24941)
# CDK3 = CDK3 (UniProt Q00526)
# CDK5 = CDK5 (UniProt Q00535)
# CDK6 = CDK6 (UniProt Q00534)
# CHEK2 = CHEK2 (UniProt O96017)
# CSF1R = CSF1R (UniProt P07333)
# CSK = CSK (UniProt P41240)
SMILES,number of time points (ALK),number of time points (ARAF),number of time points (AURKA),number of time points (AURKB),number of time points (AURKC),number of time points (BLK),number of time points (BMX),number of time points (BRAF),number of time points (BRAF_V600E),number of time points (BTK),number of time points (CAMK2A),number of time points (CAMK2G),number of time points (CDK10),number of time points (CDK2),number of time points (CDK3),number of time points (CDK5),number of time points (CDK6),number of time points (CHEK2),number of time points (CSF1R),number of time points (CSK)
COc1cccc(-n2c(=O)[nH]c3cc(Cl)n(-c4ccc(-c5cccc(OC)c5O)cc4)c3c2=O)c1 (2.5 µM),0,0,0,0,0,0,0,0,1,0,0,0,0,0,0,0,0,0,0,0
Cc1c(NC(=O)OC[C@@H]2COCCN2)cn2ncnc(Nc3ccc4c(cnn4Cc4cccc(F)c4)c3)c12 (10 µM),0,0,0,0,0,0,0,0,0,0,0,0,0,0,0,0,0,0,0,0
Nc1ncnc2c1c(-c1ccc(Oc3ccccc3)cc1)nn2C1CCNCC1 [N-piperidine Ibrutinib (hydrochloride)] (10 µM),0,0,0,0,0,1,0,0,0,0,0,0,0,0,0,0,0,0,0,0
CC1CCc2nc(N)c(C#N)c(-c3cccnc3)c2C1 (stereo not given) (10 µM),0,0,0,0,0,0,0,0,0,0,0,0,0,0,0,0,0,0,0,0
Cc1cc(-c2cc(OC(=O)c3ccccc3)ccc2Cl)cc2nnc(Nc3ccc(OCCN4CCCC4)cc3)nc12 (0.5 µM),0,0,0,0,0,0,0,0,0,0,0,0,0,0,0,0,0,0,0,0
CCn1c(-c2nonc2N)nc2cnc(Oc3cccc(NC(=O)c4ccc(OCCN5CCOCC5)cc4)c3)cc21 (10 µM),0,0,0,0,0,0,5,0,0,0,0,0,0,0,0,0,0,0,0,0
COc1cc(C(N)=O)nc(-c2cccc(C#C[C@]3(O)CCN(C)C3=O)c2)c1 (10 µM),0,0,0,0,0,0,0,0,0,0,0,0,0,0,0,0,0,0,0,0
COc1cc2ncnc(Nc3cccc(Cl)c3)c2cc1OC (10 µM),0,0,0,0,0,0,0,0,0,0,0,0,0,0,0,0,0,0,0,0
CC(C)(C)NC(=O)c1cncn1C1CCN(c2ccc(-c3nnc(C(F)(F)F)o3)cn2)CC1 (10 µM),0,0,0,0,0,0,0,0,0,0,0,0,0,0,0,0,0,0,0,0
COc1cc(N2CCN(C)CC2)ccc1Nc1ncc2c(n1)N(C1CCC1)C(=O)N(c1c(C)cccc1C)C2 (2.5 µM),0,0,0,0,0,0,0,0,0,0,0,0,0,0,0,0,0,0,0,0
O=C(Nc1nc2ccccc2[nH]1)c1cccc(-n2cccc2)c1 (10 µM),0,0,0,0,0,0,0,0,0,0,0,0,0,0,0,0,0,0,0,0
CS(=O)(=O)c1ccc(-c2cnc(N)c(C(=O)Nc3ccccc3)n2)cc1 (10 µM),0,0,0,0,0,0,0,0,0,0,0,0,0,0,0,0,0,0,0,0
Cc1cc(Nc2cc(Cl)nc(Oc3ccc([N+](=O)[O-])cc3)n2)n[nH]1 [Autophinib] (2.5 µM),0,0,0,0,0,0,2,0,0,0,0,0,0,0,0,0,0,0,0,0
Cn1cc(-c2ccc(CNc3cc(-c4cnc5cc(OCCCN6CCCC6)ccn45)ncn3)cc2)cn1 (10 µM),0,0,0,0,0,0,0,0,0,0,0,0,0,0,0,0,0,0,0,0
NC1(Cc2ccc(Cl)cc2)CCN(c2ncnc3[nH]ccc23)CC1 (10 µM),0,0,0,0,0,0,0,0,0,0,0,0,0,0,0,0,0,0,0,0
COc1ccc2[nH]cc(/C=C3\C(=O)Nc4ccc(NC(=O)CCN5CCCCC5)cc43)c2c1 (2.5 µM),0,0,0,0,0,0,0,0,0,0,0,0,0,0,0,0,0,0,0,0
C=C(C)C(=O)Nc1cccc(-c2ncnc3[nH]cc(C(=O)OCC)c23)c1 (10 µM),0,0,0,0,0,0,0,0,0,0,0,0,0,0,0,0,0,0,0,0
O=C(NC(NC(=S)Nc1ccc(F)c([N+](=O)[O-])c1)C(Cl)(Cl)Cl)C(c1ccccc1)c1ccccc1 (stereo not given) (10 µM),0,0,0,0,0,0,0,0,0,0,0,0,0,0,0,0,0,0,0,0
N#Cc1c(-c2ccccc2)cc(-c2cc(Br)ccc2O)[nH]c1=O (10 µM),0,0,0,0,0,0,0,0,0,0,0,0,0,0,0,0,0,0,0,0
"O=C(O)c1cc(O)ccc1O [2,5-Dihydroxybenzoic acid] (10 µM)",0,0,0,0,0,0,0,0,0,0,0,0,0,0,0,0,0,0,0,0
CCN1CCN(Cc2ccc(Nc3ncc(F)c(-c4cc(F)c5nc(CO)n(C(C)C)c5c4)n3)nc2)CC1 [Abemaciclib metabolite M20] (2 µM),0,0,1,0,0,0,1,0,0,0,0,0,0,0,0,0,0,0,0,0
OCCNC1CCCc2c1[nH]c1ccc(-c3ccccc3)cc21 (stereo not given) (2.5 µM),0,0,3,0,0,0,1,0,2,0,0,0,0,0,0,0,0,0,0,0
C[C@@]1(O)CCC[C@H]1n1c(=O)c(C(F)F)cc2cnc(NC3CCN(S(C)(=O)=O)CC3)nc21 (2.5 µM),1,0,3,0,0,0,0,0,1,0,0,0,0,0,0,0,0,0,0,0
COc1cc([N+](=O)[O-])ccc1S(=O)(=O)N1C[C@@H](CN2CCN(c3ccccn3)CC2)[C@H](c2cccc(F)c2)C1 (relative stereo) (10 µM),0,0,0,0,0,0,0,0,0,0,0,0,0,0,0,0,0,0,0,0

# 3 compounds already listed, arranged by length of the SMILES, rising.
SMILES,number of time points (ALK),number of time points (ARAF),number of time points (AURKA),number of time points (AURKB),number of time points (AURKC),number of time points (BLK),number of time points (BMX),number of time points (BRAF),number of time points (BRAF_V600E),number of time points (BTK),number of time points (CAMK2A),number of time points (CAMK2G),number of time points (CDK10),number of time points (CDK2),number of time points (CDK3),number of time points (CDK5),number of time points (CDK6),number of time points (CHEK2),number of time points (CSF1R),number of time points (CSK)
Nc1ncnc2c1c(-c1ccc(Oc3ccccc3)cc1)nn2C1CCNCC1 [N-piperidine Ibrutinib (hydrochloride)] (10 µM),0,0,0,0,0,1,0,0,0,0,0,0,0,0,0,0,0,0,0,0
C=C(C)C(=O)Nc1cccc(-c2ncnc3[nH]cc(C(=O)OCC)c23)c1 (10 µM),0,0,0,0,0,0,0,0,0,0,0,0,0,0,0,0,0,0,0,0
O=C(NC(NC(=S)Nc1ccc(F)c([N+](=O)[O-])c1)C(Cl)(Cl)Cl)C(c1ccccc1)c1ccccc1 (stereo not given) (10 µM),0,0,0,0,0,0,0,0,0,0,0,0,0,0,0,0,0,0,0,0
